# Record: PubChem BioAssay AID1508597 (Cure First, 2020)
# Purpose: 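Knock-downs altering ovarian cancer cell survival with or without PARP inhibitor rucaparib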 (primary screen)
# System: human ovarian carcinoma lines grown from tumours: OCI-P5x (papillary serous) and OCI-C5x (clear cell)
# Knock-down reagent: siRNA pool against human genes, 1.25 pmol siRNA per well
# Timing: 72 h or 96 h, depending on the cell culture
# Challenge: rucaparib 20 µM (about IC30) or vehicle, present until read-out
# Rucaparib or vehicle: Vehicle
# Cell line: OCI-C5x (clear cell)
# Read-out: 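Luminescent ATP-based viability assay read 72 or 96 h after transfection, depending on culture, given as normalised percent viability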
# Scale: viability, normalised: higher = more viable cells remaining
# Hit rule: 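a well counts as a hit if its normalised viability is under 80 percent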
# Meaning of the calls: active = viability under 80%; inactive = viability 80% or more
# This is an unselected part of the about 2,100 reagents, in one setting of the screen. 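Calls flag viability under 80% in either arm, not effects specific to rucaparib; the reference for percent is not stated.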 A reagent listed more than once was tested more than once; the source does not tell the runs apart. The record does not give: the 100% reference.
The opening 4 entries, to show the layout:
target,technical replicate,"viability, normalised (%)",Outcome
MAGI1,1,47.8,active
MAGI1,2,61.5,active
MAGI1,3,33.8,active
F10,1,46.3,active

The list itself, from the start:
target,technical replicate,"viability, normalised (%)",Outcome
MAGI1,1,47.8,active
MAGI1,2,61.5,active
MAGI1,3,33.8,active
F10,1,46.3,active
F10,2,61.1,active
F10,3,59.2,active
STC1,1,56.5,active
STC1,2,71.4,active
STC1,3,69.7,active
PDE5A,1,47,active
PDE5A,2,48.4,active
PDE5A,3,46.1,active
PTTG1,1,41.3,active
PTTG1,1,57,active
PTTG1,2,40.6,active
PTTG1,2,38.5,active
PTTG1,3,52.7,active
PTTG1,3,41.6,active
FCSK,1,40.2,active
FCSK,2,50.9,active
FCSK,3,34.1,active
APOA2,1,15.5,active
APOA2,2,17.4,active
APOA2,3,14.9,active
ZAR1,1,58.8,active
ZAR1,2,62.7,active
ZAR1,3,65.8,active
MAP2K3,1,67.4,active
MAP2K3,1,76.5,active
MAP2K3,2,60.7,active
MAP2K3,2,73.1,active
MAP2K3,3,72,active
MAP2K3,3,38.8,active
PTP4A2,1,73.3,active
PTP4A2,2,73.5,active
PTP4A2,3,63.9,active
EIF5A2,1,77.9,active
EIF5A2,2,83.9,inactive
EIF5A2,3,69.9,active
BLK,1,48.1,active
BLK,2,68.2,active
BLK,3,51,active
BUB3,1,26.4,active
BUB3,2,40.5,active
BUB3,3,52.2,active
CXXC4,1,33.5,active
CXXC4,2,34.2,active
CXXC4,3,29.5,active
BABAM1,1,68.4,active
BABAM1,1,39.1,active
BABAM1,2,63.4,active
BABAM1,2,62.5,active
BABAM1,3,61.8,active
BABAM1,3,65.6,active
RIOK3,1,56.8,active
RIOK3,2,86.1,inactive
RIOK3,3,68.3,active
